{
  "sequences": {"note": "Protein sequences, listed by entry. Tags and fused reporters are not part of them. Lines headed by an entry give the natural chain unless they say otherwise; changes in a name come on top.", "UniProt Q04726": "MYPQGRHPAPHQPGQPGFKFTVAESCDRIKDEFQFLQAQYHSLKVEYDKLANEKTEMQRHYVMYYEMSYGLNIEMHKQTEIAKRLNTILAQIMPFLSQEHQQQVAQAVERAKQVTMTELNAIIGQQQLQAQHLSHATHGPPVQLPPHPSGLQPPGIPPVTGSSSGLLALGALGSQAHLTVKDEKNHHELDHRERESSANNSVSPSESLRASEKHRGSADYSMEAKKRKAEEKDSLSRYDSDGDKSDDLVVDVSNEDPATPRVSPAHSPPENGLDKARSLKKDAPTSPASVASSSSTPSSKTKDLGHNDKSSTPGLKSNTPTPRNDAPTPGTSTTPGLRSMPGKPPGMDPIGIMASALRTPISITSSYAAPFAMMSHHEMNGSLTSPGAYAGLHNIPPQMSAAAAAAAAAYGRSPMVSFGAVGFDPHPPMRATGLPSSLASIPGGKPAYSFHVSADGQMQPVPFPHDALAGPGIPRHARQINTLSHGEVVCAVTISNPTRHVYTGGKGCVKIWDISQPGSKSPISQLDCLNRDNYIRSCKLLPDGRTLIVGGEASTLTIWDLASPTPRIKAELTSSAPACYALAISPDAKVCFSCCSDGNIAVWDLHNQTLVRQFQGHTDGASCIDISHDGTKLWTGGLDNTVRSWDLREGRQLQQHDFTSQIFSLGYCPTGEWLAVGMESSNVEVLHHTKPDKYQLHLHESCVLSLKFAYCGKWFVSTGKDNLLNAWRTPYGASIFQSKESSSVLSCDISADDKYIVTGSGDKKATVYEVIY", "UniProt Q9UDY2": "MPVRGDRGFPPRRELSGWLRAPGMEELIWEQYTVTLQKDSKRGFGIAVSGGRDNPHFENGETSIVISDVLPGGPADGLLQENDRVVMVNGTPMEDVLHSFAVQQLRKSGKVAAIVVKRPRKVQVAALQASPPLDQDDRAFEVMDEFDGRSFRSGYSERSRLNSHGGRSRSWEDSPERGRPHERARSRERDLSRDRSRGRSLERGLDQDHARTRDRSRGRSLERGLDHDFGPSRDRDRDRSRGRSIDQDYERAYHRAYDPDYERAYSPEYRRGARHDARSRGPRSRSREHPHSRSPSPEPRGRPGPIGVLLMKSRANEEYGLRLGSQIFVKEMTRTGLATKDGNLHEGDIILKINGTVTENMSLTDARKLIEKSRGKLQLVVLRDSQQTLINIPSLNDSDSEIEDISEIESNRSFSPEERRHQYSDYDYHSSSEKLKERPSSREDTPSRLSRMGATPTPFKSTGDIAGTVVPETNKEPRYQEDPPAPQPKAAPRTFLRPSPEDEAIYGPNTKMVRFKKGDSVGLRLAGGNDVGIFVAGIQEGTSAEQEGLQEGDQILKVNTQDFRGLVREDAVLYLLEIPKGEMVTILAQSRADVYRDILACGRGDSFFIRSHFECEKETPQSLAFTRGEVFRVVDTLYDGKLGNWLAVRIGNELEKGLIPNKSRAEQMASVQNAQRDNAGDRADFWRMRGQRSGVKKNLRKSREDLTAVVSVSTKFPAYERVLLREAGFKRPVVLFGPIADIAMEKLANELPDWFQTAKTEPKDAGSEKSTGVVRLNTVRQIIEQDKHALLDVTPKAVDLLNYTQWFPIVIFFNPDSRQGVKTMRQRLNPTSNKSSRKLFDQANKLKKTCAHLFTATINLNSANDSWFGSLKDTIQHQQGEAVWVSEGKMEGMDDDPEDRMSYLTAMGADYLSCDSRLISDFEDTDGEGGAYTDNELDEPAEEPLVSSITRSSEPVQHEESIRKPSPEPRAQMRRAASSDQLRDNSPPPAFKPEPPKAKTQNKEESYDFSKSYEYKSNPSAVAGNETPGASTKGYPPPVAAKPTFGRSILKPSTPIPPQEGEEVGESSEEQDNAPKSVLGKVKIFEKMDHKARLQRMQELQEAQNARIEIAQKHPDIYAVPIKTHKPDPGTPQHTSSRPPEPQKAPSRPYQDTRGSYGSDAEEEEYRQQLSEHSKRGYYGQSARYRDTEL", "UniProt Q8N9M5": "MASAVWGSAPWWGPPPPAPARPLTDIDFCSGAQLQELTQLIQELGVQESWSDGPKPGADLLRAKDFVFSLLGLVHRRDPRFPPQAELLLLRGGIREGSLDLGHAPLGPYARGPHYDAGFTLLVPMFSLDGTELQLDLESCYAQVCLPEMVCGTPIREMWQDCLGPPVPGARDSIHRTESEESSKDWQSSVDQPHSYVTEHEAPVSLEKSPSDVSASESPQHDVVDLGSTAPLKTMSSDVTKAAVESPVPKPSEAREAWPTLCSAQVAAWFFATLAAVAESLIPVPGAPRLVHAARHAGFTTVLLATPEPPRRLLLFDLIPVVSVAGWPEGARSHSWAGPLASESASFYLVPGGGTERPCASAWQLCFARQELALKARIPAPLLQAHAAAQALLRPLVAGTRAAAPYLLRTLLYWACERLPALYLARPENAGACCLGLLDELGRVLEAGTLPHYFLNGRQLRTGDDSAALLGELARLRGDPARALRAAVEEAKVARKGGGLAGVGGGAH", "UniProt P04183": "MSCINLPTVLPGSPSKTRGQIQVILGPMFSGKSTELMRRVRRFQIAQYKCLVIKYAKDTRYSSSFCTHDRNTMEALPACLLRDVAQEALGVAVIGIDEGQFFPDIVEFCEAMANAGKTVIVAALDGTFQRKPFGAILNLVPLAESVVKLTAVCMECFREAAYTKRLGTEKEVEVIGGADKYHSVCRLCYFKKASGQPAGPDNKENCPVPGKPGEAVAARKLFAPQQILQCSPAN", "UniProt O60603, whole entry": "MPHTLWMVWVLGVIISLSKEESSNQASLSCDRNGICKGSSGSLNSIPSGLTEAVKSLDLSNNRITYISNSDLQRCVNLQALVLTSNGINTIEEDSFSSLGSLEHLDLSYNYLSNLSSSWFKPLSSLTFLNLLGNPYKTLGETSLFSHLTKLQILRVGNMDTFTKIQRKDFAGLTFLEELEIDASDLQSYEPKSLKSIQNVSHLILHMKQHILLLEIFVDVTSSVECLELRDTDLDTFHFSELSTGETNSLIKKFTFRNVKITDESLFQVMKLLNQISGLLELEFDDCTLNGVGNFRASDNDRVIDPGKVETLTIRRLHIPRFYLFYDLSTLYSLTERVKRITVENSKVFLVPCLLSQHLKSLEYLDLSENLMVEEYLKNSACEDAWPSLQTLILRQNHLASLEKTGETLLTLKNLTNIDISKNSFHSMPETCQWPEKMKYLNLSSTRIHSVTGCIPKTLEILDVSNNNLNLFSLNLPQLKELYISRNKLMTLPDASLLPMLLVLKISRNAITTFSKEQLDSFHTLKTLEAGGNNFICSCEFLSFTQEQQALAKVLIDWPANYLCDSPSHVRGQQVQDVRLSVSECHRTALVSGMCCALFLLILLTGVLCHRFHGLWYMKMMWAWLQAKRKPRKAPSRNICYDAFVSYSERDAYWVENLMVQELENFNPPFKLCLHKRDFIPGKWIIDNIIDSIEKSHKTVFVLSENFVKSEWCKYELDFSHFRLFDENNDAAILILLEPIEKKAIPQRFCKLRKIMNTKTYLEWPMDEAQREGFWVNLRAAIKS", "UniProt Q9UM00": "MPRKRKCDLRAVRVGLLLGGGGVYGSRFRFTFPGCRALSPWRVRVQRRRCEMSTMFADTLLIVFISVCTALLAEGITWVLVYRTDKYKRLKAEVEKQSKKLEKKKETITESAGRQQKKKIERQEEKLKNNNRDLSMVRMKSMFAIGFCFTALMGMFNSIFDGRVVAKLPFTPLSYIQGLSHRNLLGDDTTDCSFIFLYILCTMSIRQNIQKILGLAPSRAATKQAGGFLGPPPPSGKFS", "UniProt Q6PI78": "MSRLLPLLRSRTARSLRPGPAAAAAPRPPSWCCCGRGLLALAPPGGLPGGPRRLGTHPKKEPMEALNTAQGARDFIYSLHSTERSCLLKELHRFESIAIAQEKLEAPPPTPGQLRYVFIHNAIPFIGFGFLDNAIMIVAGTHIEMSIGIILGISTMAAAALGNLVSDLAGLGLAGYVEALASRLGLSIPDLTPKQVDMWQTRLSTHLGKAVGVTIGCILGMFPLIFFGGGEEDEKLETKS", "UniProt Q9P0T7": "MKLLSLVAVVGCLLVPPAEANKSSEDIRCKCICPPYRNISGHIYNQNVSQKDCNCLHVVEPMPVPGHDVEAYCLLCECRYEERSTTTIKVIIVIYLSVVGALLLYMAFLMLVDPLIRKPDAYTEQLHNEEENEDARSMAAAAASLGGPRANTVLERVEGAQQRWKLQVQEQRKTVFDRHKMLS", "UniProt Q13445": "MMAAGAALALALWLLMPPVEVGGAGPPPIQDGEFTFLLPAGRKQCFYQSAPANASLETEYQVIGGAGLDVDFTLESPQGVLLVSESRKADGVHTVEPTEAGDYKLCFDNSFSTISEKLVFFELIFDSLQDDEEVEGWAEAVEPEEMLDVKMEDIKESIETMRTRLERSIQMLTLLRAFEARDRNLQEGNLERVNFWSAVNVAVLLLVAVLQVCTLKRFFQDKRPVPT", "UniProt O15321, whole entry": "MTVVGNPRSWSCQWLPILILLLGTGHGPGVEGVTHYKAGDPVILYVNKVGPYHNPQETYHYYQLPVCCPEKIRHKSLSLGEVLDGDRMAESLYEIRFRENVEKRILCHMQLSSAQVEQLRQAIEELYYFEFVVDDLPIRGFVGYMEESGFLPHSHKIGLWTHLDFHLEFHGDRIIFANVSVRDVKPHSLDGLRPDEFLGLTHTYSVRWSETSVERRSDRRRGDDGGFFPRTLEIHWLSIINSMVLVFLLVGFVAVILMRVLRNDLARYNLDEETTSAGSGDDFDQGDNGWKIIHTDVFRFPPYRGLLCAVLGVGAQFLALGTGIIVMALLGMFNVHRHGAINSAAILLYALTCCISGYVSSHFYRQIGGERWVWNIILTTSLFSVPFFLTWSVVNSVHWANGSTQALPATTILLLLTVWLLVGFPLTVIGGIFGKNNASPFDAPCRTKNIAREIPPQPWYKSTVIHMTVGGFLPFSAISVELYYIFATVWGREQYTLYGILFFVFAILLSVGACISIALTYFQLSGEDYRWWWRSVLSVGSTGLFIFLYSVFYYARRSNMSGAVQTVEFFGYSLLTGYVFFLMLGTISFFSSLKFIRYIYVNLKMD", "UniProt Q15814": "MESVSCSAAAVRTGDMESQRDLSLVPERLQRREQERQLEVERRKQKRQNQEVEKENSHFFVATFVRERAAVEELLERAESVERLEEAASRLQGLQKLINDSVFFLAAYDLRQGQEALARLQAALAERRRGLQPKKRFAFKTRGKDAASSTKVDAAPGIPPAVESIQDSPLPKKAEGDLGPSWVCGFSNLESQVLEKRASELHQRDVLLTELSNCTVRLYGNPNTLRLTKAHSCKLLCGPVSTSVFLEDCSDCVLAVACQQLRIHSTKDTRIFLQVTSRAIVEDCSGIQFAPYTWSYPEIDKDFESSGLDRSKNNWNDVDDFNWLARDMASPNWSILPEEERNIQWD", "UniProt Q9BV44": "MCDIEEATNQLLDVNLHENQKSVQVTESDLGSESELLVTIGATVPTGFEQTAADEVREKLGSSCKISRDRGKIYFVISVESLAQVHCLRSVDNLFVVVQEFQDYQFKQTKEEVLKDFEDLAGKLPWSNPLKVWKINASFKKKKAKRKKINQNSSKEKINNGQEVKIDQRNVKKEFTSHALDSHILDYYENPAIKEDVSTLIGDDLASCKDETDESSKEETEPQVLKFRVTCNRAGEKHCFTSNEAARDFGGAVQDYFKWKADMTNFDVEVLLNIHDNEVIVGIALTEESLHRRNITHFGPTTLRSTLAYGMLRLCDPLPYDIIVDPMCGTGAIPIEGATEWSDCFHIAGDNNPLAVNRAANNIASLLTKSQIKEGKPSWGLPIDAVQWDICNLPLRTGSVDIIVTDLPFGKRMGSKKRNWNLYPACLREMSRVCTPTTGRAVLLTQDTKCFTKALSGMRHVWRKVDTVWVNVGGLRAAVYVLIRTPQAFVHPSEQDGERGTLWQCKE", "UniProt O75347": "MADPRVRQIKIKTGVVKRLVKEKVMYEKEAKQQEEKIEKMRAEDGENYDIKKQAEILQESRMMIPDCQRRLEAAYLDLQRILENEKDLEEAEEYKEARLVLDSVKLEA", "UniProt Q9NVH6": "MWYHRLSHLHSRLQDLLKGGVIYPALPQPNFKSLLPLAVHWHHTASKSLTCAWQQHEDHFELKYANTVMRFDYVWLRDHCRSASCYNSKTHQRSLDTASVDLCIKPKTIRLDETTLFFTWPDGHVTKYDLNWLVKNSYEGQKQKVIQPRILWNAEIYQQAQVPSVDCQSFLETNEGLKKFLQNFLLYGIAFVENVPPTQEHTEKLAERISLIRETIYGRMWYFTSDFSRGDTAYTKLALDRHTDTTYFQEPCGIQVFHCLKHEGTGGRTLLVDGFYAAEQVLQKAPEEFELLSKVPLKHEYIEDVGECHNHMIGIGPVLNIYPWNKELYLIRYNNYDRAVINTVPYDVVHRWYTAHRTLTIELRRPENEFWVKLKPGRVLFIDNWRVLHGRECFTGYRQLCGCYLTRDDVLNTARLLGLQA", "UniProt O60220": "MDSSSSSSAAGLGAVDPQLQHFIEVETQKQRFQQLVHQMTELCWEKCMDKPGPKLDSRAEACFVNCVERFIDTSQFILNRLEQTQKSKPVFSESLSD", "UniProt Q15369, whole entry": "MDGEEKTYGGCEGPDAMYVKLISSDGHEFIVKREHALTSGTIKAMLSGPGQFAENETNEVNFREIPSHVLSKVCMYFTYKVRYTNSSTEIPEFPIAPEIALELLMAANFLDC"},
  "source": "the supplement of paper PMC7666118",
  "note": "Some of the results follow.",
  "data": [
    {"compound": "COc1ccc(Cn2ccc3ccc(C(=O)NO)cc32)cc1", "experiment": "dose-dependent thermal stabilisation call (2D-TPP, DLPTP, 10% FDR) (binary (1 = stabilised)); higher = stabilised by the compound", "details": "system: HL-60 intact cells; concentration range 0.04-10 µM", "values": [
      {"target": "TLE3 (UniProt Q04726)", "dose-dependent thermal stabilisation call": "inactive: 0"},
      {"target": "TMEM186 (UniProt Q96B77)", "dose-dependent thermal stabilisation call": "inactive: 0"},
      {"target": "TAP1 (UniProt Q03518)", "dose-dependent thermal stabilisation call": "inactive: 0"},
      {"target": "TNRC6B (UniProt Q9UPQ9)", "dose-dependent thermal stabilisation call": "inactive: 0"},
      {"target": "TJP2 (UniProt Q9UDY2)", "dose-dependent thermal stabilisation call": "inactive: 0"},
      {"target": "TMEM102 (UniProt Q8N9M5)", "dose-dependent thermal stabilisation call": "inactive: 0"},
      {"target": "TK1 (UniProt P04183)", "dose-dependent thermal stabilisation call": "inactive: 0"},
      {"target": "TBC1D13 (UniProt Q9NVG8)", "dose-dependent thermal stabilisation call": "inactive: 0"},
      {"target": "TBC1D2B (UniProt Q9UPU7)", "dose-dependent thermal stabilisation call": "inactive: 0"},
      {"target": "TLR2 (UniProt O60603)", "dose-dependent thermal stabilisation call": "inactive: 0"},
      {"target": "TBC1D10A (UniProt Q9BXI6)", "dose-dependent thermal stabilisation call": "inactive: 0"},
      {"target": "TMEM115 (UniProt Q12893)", "dose-dependent thermal stabilisation call": "inactive: 0"},
      {"target": "TARBP1 (UniProt Q13395)", "dose-dependent thermal stabilisation call": "inactive: 0"},
      {"target": "TM9SF4 (UniProt Q92544)", "dose-dependent thermal stabilisation call": "inactive: 0"},
      {"target": "TMCO1 (UniProt Q9UM00)", "dose-dependent thermal stabilisation call": "inactive: 0"},
      {"target": "TMEM65 (UniProt Q6PI78)", "dose-dependent thermal stabilisation call": "inactive: 0"},
      {"target": "TMEM9 (UniProt Q9P0T7)", "dose-dependent thermal stabilisation call": "inactive: 0"},
      {"target": "TMEM111 (UniProt Q9P0I2)", "dose-dependent thermal stabilisation call": "inactive: 0"},
      {"target": "TPM3 (UniProt P06753)", "dose-dependent thermal stabilisation call": "inactive: 0"},
      {"target": "TMED1 (UniProt Q13445)", "dose-dependent thermal stabilisation call": "inactive: 0"},
      {"target": "TMEM165 (UniProt Q9HC07)", "dose-dependent thermal stabilisation call": "inactive: 0"},
      {"target": "TIMM17A (UniProt Q99595)", "dose-dependent thermal stabilisation call": "inactive: 0"},
      {"target": "TLK1 (UniProt Q9UKI8)", "dose-dependent thermal stabilisation call": "inactive: 0"},
      {"target": "TBL1XR1 (UniProt Q9BZK7)", "dose-dependent thermal stabilisation call": "inactive: 0"},
      {"target": "TM9SF1 (UniProt O15321)", "dose-dependent thermal stabilisation call": "inactive: 0"},
      {"target": "TBCC (UniProt Q15814)", "dose-dependent thermal stabilisation call": "inactive: 0"},
      {"target": "TBC1D4 (UniProt O60343)", "dose-dependent thermal stabilisation call": "inactive: 0"},
      {"target": "THUMPD3 (UniProt Q9BV44)", "dose-dependent thermal stabilisation call": "inactive: 0"},
      {"target": "TBCA (UniProt O75347)", "dose-dependent thermal stabilisation call": "inactive: 0"},
      {"target": "TMEM77 (UniProt Q6UX65)", "dose-dependent thermal stabilisation call": "inactive: 0"},
      {"target": "TMLHE (UniProt Q9NVH6)", "dose-dependent thermal stabilisation call": "inactive: 0"},
      {"target": "TNFAIP2 (UniProt Q03169)", "dose-dependent thermal stabilisation call": "inactive: 0"},
      {"target": "TOP2B (UniProt Q02880)", "dose-dependent thermal stabilisation call": "inactive: 0"},
      {"target": "TAP2 (UniProt Q03519)", "dose-dependent thermal stabilisation call": "inactive: 0"},
      {"target": "TM9SF2 (UniProt Q99805)", "dose-dependent thermal stabilisation call": "inactive: 0"},
      {"target": "THADA (UniProt Q6YHU6)", "dose-dependent thermal stabilisation call": "inactive: 0"},
      {"target": "TIMM8A (UniProt O60220)", "dose-dependent thermal stabilisation call": "inactive: 0"},
      {"target": "TCEB1 (UniProt Q15369)", "dose-dependent thermal stabilisation call": "inactive: 0"}
    ]}
  ]
}
